No constants are given. Whether binding was seen depends on the method and setting. Binding calls can cover weak binding; strength is not graded here.

For experiment [1], the target named is GST-KIAA0561 PDZ domain fusion protein. The experiment is described as follows: G assay.
For experiment [2] the target is unchanged. The experiment is described as follows: A/G assays (Table 2).

B1: FasLigand C-terminal peptide AA23L-M (peptide)
peptide: SSKSKSSEESQTFFGLYKL
modifications: biotin at the amino-terminus
With B1, the binding result in experiment [1] and in experiment [2] was “binds” in each case.

B2: DOCK2 C-terminal peptide AA40L (peptide)
peptide: LASKSAEEGKQIPDSLSTDL
modifications: biotin at the amino-terminus
Take B2: the binding result in experiment [1] is recorded as “binds”.

Values taken from patent publication US6942981.
